These are yes or no findings as the source states them, for the method shown. In cells and extracts the contact can be indirect. Some entries that bind do so weakly or less than the wild type.
Target: Enhancer of Zeste [E(z)] (D. melanogaster (endogenous in larval CNS)), P42124
Assay: co-IP; third instar larval CNS protein extracts (1 mg per reaction; 25 mM Hepes, 0.1 mM EDTA, 12.5 mM MgCl2, 10% glycerol, 0.01% NP-40, 10 mM NaCl; sonicated), precipitated with anti-Ph or anti-E(z) overnight at 4°C on protein A/G beads, Western blot
Settings: remark: other sources report otherwise

B1: Pleiohomeotic (Pho), Q8ST83 1-520 (protein)
chain: MAYERFGIILQSEQYDEDIGNTKVNQKMNEGNHYDLHRKNAFDRIIHSESKKGDNVINYNIHENDKIKAADNIFSSKLKMNPNMSYEMNINCFKNIGYGENQETSKVLTNSLSNNDINTEESGVVDKNSPFLTLGTTILNSNGKSRRWEQKLVHIKTMEGEFSVTMWASGISDDEYSGSDQIVGASDLLKGKEEFGIDGFTSQQNKEYQKMESKFTNAQTLEMPHPISSVQIMDHLIKERGNLSQENNISERILSKTTLSFEEPILLPDSSSIELVNETAAMTINNHRTLSNHTGNTGDLHALPSSVPFRIGLHEGQVNDCLSTISQSTHQDNTDSTGCGEMNLSEVTVSYTNDKKIACPHKGCNKHFRDSSAMRKHLHTHGPRVHVCAECGKAFVESSKLKRHQLVHTGEKPFQCTFEGCGKRFSLDFNLRTHVRIHTGDRPFVCPFDACNKKFAQSTNLKSHILTHAKAKRNTSISGKSGCSNAESNSQSEDTSANYVKVELQDSVTENHVPFVVYAD
- binding: binds
